For at least one entry, the source does not settle the construct or the ends of the probe. For part of these data: A negative result means that nothing was seen under these conditions. For part of these data: At least one verdict was read from the data and is not stated in words by the source. For part of these data: Protein sequences can lack the tags named with them.
Columns and labels:
GST = assay: EMSA; details: recombinant protein; label: FAM (probe, competitor unlabeled)
[1] = tested on: StABI5 (truncated, bZIP-containing) (Solanum tuberosum); assay: EMSA; details: recombinant protein; protein details: N-terminal GST (pET42b); label: FAM (probe, competitor unlabeled)
[2] = tested on: StABL1 (Solanum tuberosum); assay: EMSA; details: recombinant protein; protein details: N-terminal GST (pET42b); label: FAM (probe, competitor unlabeled)
[3] = tested on: StABL2 (Solanum tuberosum); assay: EMSA; details: recombinant protein; protein details: N-terminal GST (pET42b); label: FAM (probe, competitor unlabeled)
[4] = molecular target: T1, StAREB1t (truncated, bZIP-containing) (Solanum tuberosum) (UniProt A0ABQ7WS50); assay: EMSA; details: recombinant protein; protein details: N-terminal GST (pET42b); label: FAM (probe, competitor unlabeled)
T1 sequence (looked up, limits assumed): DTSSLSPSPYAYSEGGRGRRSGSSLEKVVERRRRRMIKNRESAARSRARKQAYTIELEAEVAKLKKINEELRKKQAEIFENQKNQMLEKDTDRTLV

[5] = molecular target: T2, StAREB2t (truncated, bZIP-containing) (Solanum tuberosum) (UniProt A0A3Q7GA77); assay: EMSA; details: recombinant protein; protein details: N-terminal GST (pET42b); label: FAM (probe, competitor unlabeled)
T2 sequence (looked up, limits assumed): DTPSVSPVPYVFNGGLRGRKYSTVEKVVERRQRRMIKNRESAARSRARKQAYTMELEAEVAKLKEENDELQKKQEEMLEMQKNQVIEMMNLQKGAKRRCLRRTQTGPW

[6] = molecular target: T3, StAREB3t (truncated, bZIP-containing) (Solanum tuberosum) (UniProt M1A6S2); assay: EMSA; details: recombinant protein; protein details: N-terminal GST (pET42b); label: FAM (probe, competitor unlabeled)
T3 sequence (looked up, limits assumed): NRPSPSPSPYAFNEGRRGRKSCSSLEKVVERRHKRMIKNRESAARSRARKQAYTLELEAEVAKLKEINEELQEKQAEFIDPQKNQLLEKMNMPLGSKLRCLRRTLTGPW

[7] = molecular target: T4, StAREB4t (truncated, bZIP-containing) (Solanum tuberosum) (UniProt M1C3P5); assay: EMSA; details: recombinant protein; protein details: N-terminal GST (pET42b); label: FAM (probe, competitor unlabeled)
T4 sequence (looked up, limits assumed): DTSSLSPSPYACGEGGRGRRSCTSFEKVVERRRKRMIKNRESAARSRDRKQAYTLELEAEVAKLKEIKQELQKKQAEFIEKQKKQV

[8] = tested on: StABI5 (truncated, bZIP-containing) (Solanum tuberosum); assay: competition with a labelled probe; details: 50- and 100-fold excess over ABRE probe; recombinant protein; protein details: N-terminal GST (pET42b); label: unlabeled competitor
[9] = tested on: StABL1 (Solanum tuberosum); assay: competition with a labelled probe; details: 50- and 100-fold excess over ABRE probe; recombinant protein; protein details: N-terminal GST (pET42b); label: unlabeled competitor
[10] = tested on: StABL2 (Solanum tuberosum); assay: competition with a labelled probe; details: 50- and 100-fold excess over ABRE probe; recombinant protein; protein details: N-terminal GST (pET42b); label: unlabeled competitor
[11] = molecular target: T1, StAREB1t (truncated, bZIP-containing) (Solanum tuberosum); assay: competition with a labelled probe; details: 50- and 100-fold excess over ABRE probe; recombinant protein; protein details: N-terminal GST (pET42b); label: unlabeled competitor
[12] = molecular target: T2, StAREB2t (truncated, bZIP-containing) (Solanum tuberosum); assay: competition with a labelled probe; details: 50- and 100-fold excess over ABRE probe; recombinant protein; protein details: N-terminal GST (pET42b); label: unlabeled competitor
[13] = molecular target: T3, StAREB3t (truncated, bZIP-containing) (Solanum tuberosum); assay: competition with a labelled probe; details: 50- and 100-fold excess over ABRE probe; recombinant protein; protein details: N-terminal GST (pET42b); label: unlabeled competitor
[14] = molecular target: T4, StAREB4t (truncated, bZIP-containing) (Solanum tuberosum); assay: competition with a labelled probe; details: 50- and 100-fold excess over ABRE probe; recombinant protein; protein details: N-terminal GST (pET42b); label: unlabeled competitor

“AATTCCGGACACGTGGCGTAAGCT (double strand) [ABRE (Em1a element)]”: no binding (GST); binds [1]; binds [2]. “AATTCCGGACACGTGGCGTAAGCT (double strand) [ABRE (Em1a element)]”: binds [3]; binds [4]; binds [5]. “AATTCCGGACACGTGGCGTAAGCT (double strand) [ABRE (Em1a element)]”: binds [6]; binds [7].

“AATTCCGGACCTACAGCCTAAGCT (double strand) [mABRE]”: no binding [8]; no binding [9]; no binding [10]. “AATTCCGGACCTACAGCCTAAGCT (double strand) [mABRE]”: no binding [11]; no binding [12]; no binding [13]. “AATTCCGGACCTACAGCCTAAGCT (double strand) [mABRE]”: no binding [14].
